# Assay results: PubChem BioAssay AID504467 (National Center for Advancing Translational Sciences (NCATS), 2011)
# Screen size: about 330,000 compounds; about 7,700 (2.3%) were called active. The shares of active, inactive and inconclusive entries below differ from those in the screen. Calls come from the whole dose curve; as a rule, active = well fitted inhibition curve with a large enough effect; inconclusive = small, poorly fitted or top-dose-only effect, or effect the other way; inactive = flat fitted curve, though single readings scatter. Where the call is inconclusive, the potency comes from a doubtful curve fit.
# Experiment: qHTS screen for small molecules that inhibit ELG1-dependent DNA repair in human embryonic kidney (HEK293T) cells expressing luciferase-tagged ELG1; note: nearly all actives have a fitted effect of over 55% in size
# Details: HEK293T ELG1-luciferase reporter, luminescence, 16 h, DNA damage induced by 5-fluorouridine; activity change, negative = inhibition: at 46.1 µM (top of the series)
# In short: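 Reporter activity after DNA damage by 5-fluorouridine is monitored. Compound-treated cells incubate 16 hr at 37 °C, then ONE-Glo is added for 30 min before luminescence reading.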
# % is set by controls: 0 for no effect and ±100 for the full control effect; potency is the fitted concentration of half-maximal effect.
Compound,Potency,"activity change, negative = inhibition"
Cc1cc(C)n(-c2c(C)[nH]c3ccccc23)n1,"inconclusive: 20.6 µM [inhibitor, single point]",–
CCCc1nc2ccccc2c(C(=O)OCc2nnc(-c3cc(OC)c(OC)c(OC)c3)o2)c1CC,"inconclusive: 4.11 µM [inhibitor, full curve]",–
O=C(Nc1ccccc1)Nc1ccc(-n2ccc(C(F)(F)F)n2)cc1,"inconclusive: 2.59 µM [activator, full curve]",–
O=[N+]([O-])c1cccc(S(=O)(=O)Nc2nc3ccccc3nc2Nc2cccc(S(=O)(=O)N3CCCCC3)c2)c1,active: 2.06 µM,–
O=C(CNC1CC1)Nc1cc(C(F)(F)F)ccc1Cl,–,inactive: 4.9%
COc1ccc(Cc2nc(C(=O)Nc3ccc(Cl)cc3)cs2)cc1,"inconclusive: 16.4 µM [inhibitor, partial curve, poor fit]",–
c1ccc(-c2csc(-c3cccnc3)n2)cc1,"inconclusive: 29.1 µM [activator, single point]",–
C=CCCCN(Cc1ccccc1)S(=O)(=O)c1ccccc1Br,–,inactive: -17.6%
O=C(Nc1nc2ccccc2s1)c1cccc(S(=O)(=O)N2CCc3ccccc32)c1,–,inactive: -21.6%
CCN(CC)C(=O)Cn1c(=O)n(-c2ccccc2)c(=O)c2sccc21,"inconclusive: 0.206 µM [inhibitor, single point]",–
CC1CCCCC1NC(=O)CCNS(=O)(=O)c1ccc(Cl)cc1 (stereo not given),–,inactive: 2.48%
C[C@@H](C(=O)N1CCN(c2ccccc2)CC1)N1C(=O)C2CC=CCC2C1=O (stereo not given in full),–,inactive: 18.2%
CCN(CC)c1ccc(C(=O)Nc2ccccc2)cc1[N+](=O)[O-],"inconclusive: 29.1 µM [inhibitor, single point]",–
CCNC(=S)N/N=C(\C)c1ccc2c(c1)OCCO2,"inconclusive: 9.2 µM [activator, partial curve, poor fit]",–
CC(OC(=O)CCCN=C1NS(=O)(=O)c2ccccc21)C(=O)Nc1ccccc1[N+](=O)[O-] (stereo not given),–,inactive: -1.69%
COc1ccc2c(c1)CCc1c(C(=O)Nc3ccn(Cc4ccc(C)cc4)n3)noc1-2,"inconclusive: 1.3 µM [inhibitor, partial curve, poor fit]",–
COc1ccccc1NC(=O)/C=C\c1ccco1,"inconclusive: 23.1 µM [activator, partial curve]",–
Cc1cccc(NNC(=O)C(=O)NNc2cccc(C)c2)c1,active: 6.51 µM,–
CC(C)CNC(=O)c1ccc(COc2ccc(Cl)cc2Cl)o1,–,inactive: 9.6%
CN(C)c1ccc(C(=O)OCc2ccc(Br)cc2)cc1,"inconclusive: 20.6 µM [activator, single point]",–

# In a second layout: results already given.
Compound | Potency | activity change, negative = inhibition
Cc1cc(C)n(-c2c(C)[nH]c3ccccc23)n1 | inconclusive: 20.6 µM [inhibitor, single point] | –
CCCc1nc2ccccc2c(C(=O)OCc2nnc(-c3cc(OC)c(OC)c(OC)c3)o2)c1CC | inconclusive: 4.11 µM [inhibitor, full curve] | –
O=C(Nc1nc2ccccc2s1)c1cccc(S(=O)(=O)N2CCc3ccccc32)c1 | – | inactive: -21.6%
CN(C)c1ccc(C(=O)OCc2ccc(Br)cc2)cc1 | inconclusive: 20.6 µM [activator, single point] | –
